Results are given in words; binding and its absence hold for the method and conditions named. For part of these data: Binding seen in cells or lysates may run through a third protein. Some binding calls cover weakened binding; strength is not graded here. For part of these data: Tags and fused reporters may be left off the sequences shown.
B1: Blc with a C-terminal Strep tag II (protein, UniProt P0A901 19-177)
chain: CSSPTPPRGVTVVNNFDAKRYLGTWYEIARFDHRFERGLEKVTATYSLRDDGGLNVINKGYNPDRGMWQQSEGKAYFTGAPTRAALKVSFFGPFYGGYNVIALDREYRHALVCGPDRDYLWILSRTPTISDEVKQEMLAVATREGFDVSKFIWVQQPGS
B2: YbjP with a C-terminal Strep tag II (protein, UniProt P75818 19-171)
chain: CTTVTPAYKDNGTRSGPCVEGGPDNVAQQFYDYRILHRSNDITALRPYLSDKLATLLSDASRDNNHRELLTNDPFSSRTTLPDSAHVASASTIPNRDARNIPLRVDLKQGDQGWQDEVLMIQEGQCWVIDDVRYLGGSVHATAGTLRQSIENR
B3: Slp with a C-terminal Strep tag II (protein, UniProt P37194 19-188)
chain: CSSIPQNIKGNNQPDIQKSFVAVHNQPGLYVGQQARFGGKVINVINGKTDTLLEISVLPLDSYAKPDIEANYQGRLLARQSGFLDPVNYRNHFVTILGTIQGEQPGFINKVPYNFLEVNMQGIQVWHLREVVNTTYNLWDYGYGAFWPEPGWGAPYYTNAVSQVTPELVK
B4: Lpp with a C-terminal Strep tag II (protein, UniProt P69776 21-78)
chain: CSSNAKIDQLSSDVQTLNAKVDQLSNDVNAMRSDVQAAKDDAARANQRLDNMATKYRK
B5: endogenous E. coli lipoprotein YedD (natural protein)
chain: CAEVENYNNVVKTPAPDWLAGYWQTKGPQRALVSPEAIGSLIVTKEGDTLDCRQWQRVIAVPGKLTLMSDDLTNVTVKRELYEVERDGNTIEYDGMTMERVDRPTAECAAALDKAPLPTPLP

The chains behind the UniProt entries cited, without tags or fusion partners. Where a name states a change or a piece, a line headed by the entry shows the natural chain unless it says otherwise. Residues count along the entry.
UniProt Q9I5U2, residues 34-924: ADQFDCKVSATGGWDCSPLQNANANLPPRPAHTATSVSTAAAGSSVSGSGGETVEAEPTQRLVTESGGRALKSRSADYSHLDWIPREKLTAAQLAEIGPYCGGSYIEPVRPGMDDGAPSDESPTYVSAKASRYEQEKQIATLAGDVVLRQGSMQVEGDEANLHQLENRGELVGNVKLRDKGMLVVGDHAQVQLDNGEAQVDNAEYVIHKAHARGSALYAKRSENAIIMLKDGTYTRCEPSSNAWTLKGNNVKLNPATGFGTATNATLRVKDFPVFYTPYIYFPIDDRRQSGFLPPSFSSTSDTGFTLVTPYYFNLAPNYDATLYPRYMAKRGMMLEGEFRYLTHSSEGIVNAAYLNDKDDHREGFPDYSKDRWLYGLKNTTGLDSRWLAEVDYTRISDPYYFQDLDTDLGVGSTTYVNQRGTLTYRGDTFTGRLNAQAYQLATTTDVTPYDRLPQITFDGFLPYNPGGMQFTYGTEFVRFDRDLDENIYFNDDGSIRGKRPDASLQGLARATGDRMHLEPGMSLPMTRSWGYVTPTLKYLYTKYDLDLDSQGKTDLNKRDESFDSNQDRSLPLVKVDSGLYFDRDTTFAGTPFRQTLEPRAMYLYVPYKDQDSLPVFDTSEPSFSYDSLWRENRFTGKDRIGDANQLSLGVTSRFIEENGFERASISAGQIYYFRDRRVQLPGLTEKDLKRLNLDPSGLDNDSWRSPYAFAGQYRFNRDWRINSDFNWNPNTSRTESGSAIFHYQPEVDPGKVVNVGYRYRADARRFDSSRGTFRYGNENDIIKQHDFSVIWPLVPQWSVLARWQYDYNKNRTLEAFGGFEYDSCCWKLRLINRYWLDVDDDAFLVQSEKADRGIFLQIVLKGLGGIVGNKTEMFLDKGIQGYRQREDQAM
UniProt Q83SQ0: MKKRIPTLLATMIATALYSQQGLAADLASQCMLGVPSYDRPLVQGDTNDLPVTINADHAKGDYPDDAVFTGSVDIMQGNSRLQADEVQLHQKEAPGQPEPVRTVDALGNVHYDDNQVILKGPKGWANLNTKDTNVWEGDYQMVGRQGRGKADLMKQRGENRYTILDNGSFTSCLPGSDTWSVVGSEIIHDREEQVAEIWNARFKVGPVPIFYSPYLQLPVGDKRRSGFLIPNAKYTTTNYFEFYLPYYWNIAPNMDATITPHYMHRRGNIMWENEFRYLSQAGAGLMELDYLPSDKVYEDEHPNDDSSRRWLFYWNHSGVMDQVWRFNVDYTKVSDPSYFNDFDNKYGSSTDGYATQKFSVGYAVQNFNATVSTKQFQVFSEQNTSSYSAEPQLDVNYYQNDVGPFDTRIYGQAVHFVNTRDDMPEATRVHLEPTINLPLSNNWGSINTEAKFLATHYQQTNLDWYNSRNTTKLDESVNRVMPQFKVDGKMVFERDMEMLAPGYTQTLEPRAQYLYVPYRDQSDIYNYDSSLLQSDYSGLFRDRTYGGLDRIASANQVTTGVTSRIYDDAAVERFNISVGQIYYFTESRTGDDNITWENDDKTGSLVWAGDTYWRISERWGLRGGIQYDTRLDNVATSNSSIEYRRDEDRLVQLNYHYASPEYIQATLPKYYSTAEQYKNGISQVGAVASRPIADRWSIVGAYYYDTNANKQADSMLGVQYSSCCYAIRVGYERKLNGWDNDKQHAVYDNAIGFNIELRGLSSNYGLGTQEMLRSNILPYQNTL

What follows are binders tested against LptD from Pseudomonas aeruginosa (Pseudomonas aeruginosa) (UniProt Q9I5U2) (assay: crystal structure).
With CGLKGPLYFPPADKNAPPPTKPVETQTQSTVPDKNDRATGDGPSQVNY (peptide, UniProt P0ADN6 20-67, three acyl chains (R1, R2, R3) on the N-terminal Cys of the mature lipoprotein) [endogenous Escherichia coli lipoprotein YifL] the binding was “binds”.

These binders were tested against LptDE complex from Shigella flexneri with a hexahistidine tag on LptE (Shigella flexneri) (UniProt Q83SQ0) (assay: pull-down).
With B1 the binding was “binds”.
B2 was tested, and the binding was “binds”.
B3 was tested, and the binding was “binds”.
For B4, the binding was “binds”.
B5 was tested, and the binding was “binds”.

Reference: article doi:10.1101/2022.12.25.521893 (bioRxiv, 2022)
